Test results published in patent publication US12485117B2, “Compositions and methods for activating signaling through the CB1 cannabinoid receptor for treating and preventing diseases and disorders characterized by abnormal cellular accumulation of sphingolipids such as sphingomyelin” (Wylder Nation Foundation, priority 2018, dated 2025).
Some of these results come from one statement about several compounds together. At least one compound was matched to its structure with a doubt left. Some compounds share one range, which may span the group rather than tell each member.

Tested on: ASMko cultured neurons
Assay: TUNEL assay of neuronal death in ASMko cultured neurons
Assay type: cell-based, mouse
Settings: 50 μM for 1 hour, treated ASMko cultures, similar to the non-treated ones
Procedure: FIG. 10B is a graph showing mean±SEM percentage of apoptotic cells, measured by TUNEL assay, with respect to the positive control in which the cells were treated with H202.
The percentage of dying neurons showing DNA fragmentation was 5-8% in the treated ASMko cultures similar to the non-treated ones.

| Compound | percentage of dying neurons showing DNA fragmentation |
| --- | --- |
| NC(=O)c1cccc(-c2cccc(OC(=O)NC3CCCCC3)c2)c1 [URB597] | 5-8% |
| O=C(Nc1cccnn1)N1CCC(=Cc2cccc(Oc3ccc(C(F)(F)F)cn3)c2)CC1 [PF-04457845] | 5-8% |
| O=C(Nc1ccccc1)N1CCN(c2nc(-c3ccccc3)ns2)CC1 [JNJ-1661010] | 5-8% |
| CCCCC/C=C\C/C=C\C/C=C\C/C=C\CCCC(=O)NCCO [anandamide] | 5-8% |
